Values from PubChem BioAssay AID1224826 (NIAID, 2016)
Aim: 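Regulators of Tlr4 signalling leading to Tnf-alpha expression in macrophages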 (primary screen). Cells: RAW264.7 G9 macrophages from mouse bearing reporters for p65 (GFP) and the Tnf promoter (mCherry). Knock-down reagent: siRNA pool against mouse genes, 100 nM. Time to read-out: 16 h of LPS stimulation, after 2 days of siRNA transfection. Treatment: bacterial lipopolysaccharide (Salmonella minnesota R595), 10 ng/ml. Detection: 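Imaged Tnf reporter mCherry in nuclei, minus background, normalised per plate to the median and expressed as robust z-scores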. Scale: Tnf reporter robust z-score: higher = stronger Tnf promoter reporter signal after LPS. Active means: 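Called active when robust z-score is at most -1.3, matching the median of the Tlr4 knock-down control, or over 3; control wells and wells with under 50 cells never active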. Meaning of the calls: active = Tnf reporter clearly lowered or raised; inactive = no clear change in Tnf reporter.
This is one part, drawn at random, of about 17,000 reagents. In the full data, about 1,110 (6.6%) got an active call. 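Active means lowered or raised reporter signal; replicate intensities are raw and not normalised per plate.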 The numbers tell different reagents against one gene apart. Not all columns of the deposit are shown.

Target gene | reagent no. | Tnf reporter robust z-score | fewer than 50 cells in well | activity call
Or1j4 | 1 | -0.58 | enough cells in well | inactive
Ccdc63 | 1 | – | fewer than 50 cells per well; well left out of calls | inactive
Retnlb | 1 | 1.09 | enough cells in well | inactive
Trhr | 1 | 0.51 | enough cells in well | inactive
Dusp5 | 1 | 1.13 | enough cells in well | inactive
Drg1 | 1 | -0.88 | enough cells in well | inactive
Efcab9 | 1 | 1.62 | enough cells in well | inactive
Grpel1 | 1 | 0.05 | enough cells in well | inactive
Rasa1 | 1 | -0.03 | enough cells in well | inactive
Myrip | 1 | -0.31 | enough cells in well | inactive
Mesp1 | 1 | -0.78 | enough cells in well | inactive
Tsx | 1 | -0.09 | enough cells in well | inactive
Ofcc1 | 1 | -0.99 | enough cells in well | inactive
Akr1c6 | 1 | -0.33 | enough cells in well | inactive
Smim48 | 1 | 0.66 | enough cells in well | inactive
Fbxo6 | 1 | -0.1 | enough cells in well | inactive
Hmgb1 | 1 | 0.55 | enough cells in well | inactive
Gpat4 | 1 | -0.66 | enough cells in well | inactive
Vmn2r129 | 1 | 0.55 | enough cells in well | inactive
Vmn2r129 | 2 | -0.24 | enough cells in well | inactive
Esyt1 | 1 | -0.34 | enough cells in well | inactive
Alg13 | 1 | 1 | enough cells in well | inactive
Six6 | 1 | 0.39 | enough cells in well | inactive
Klrg1 | 1 | -0.24 | enough cells in well | inactive
NALP6 | 1 | -1.03 | enough cells in well | inactive
Krt16 | 1 | -0.22 | enough cells in well | inactive
H2-Ea | 1 | 0.34 | enough cells in well | inactive
Tnfrsf18 | 1 | -0.37 | enough cells in well | inactive
Ndufs1 | 1 | 0.03 | enough cells in well | inactive
Cadps2 | 1 | -0.02 | enough cells in well | inactive
Tril | 1 | -1.37 | enough cells in well | active
Sprr2k | 1 | -0.48 | enough cells in well | inactive
Homer2 | 1 | 0.63 | enough cells in well | inactive
Slc17a7 | 1 | – | fewer than 50 cells per well; well left out of calls | inactive
Nr3c1 | 1 | 0.39 | enough cells in well | inactive
Akip1 | 1 | -0.6 | enough cells in well | inactive
Stard7 | 1 | 2.49 | enough cells in well | inactive
Jchain | 1 | – | fewer than 50 cells per well; well left out of calls | inactive
Wdr74 | 1 | – | fewer than 50 cells per well; well left out of calls | inactive
Dnajb11 | 1 | 3 | enough cells in well | inactive
Or2b2b | 1 | -0.6 | enough cells in well | inactive
Zfp786 | 1 | -0.9 | enough cells in well | inactive
Mex3d | 1 | 0.61 | enough cells in well | inactive
Or13n4 | 1 | 0.37 | enough cells in well | inactive
Tmem38b | 1 | – | fewer than 50 cells per well; well left out of calls | inactive
Trabd | 1 | 2.18 | enough cells in well | inactive
Rps15a | 1 | -1.61 | enough cells in well | active
Fgf1 | 1 | -0.21 | enough cells in well | inactive
Or9i14 | 1 | 0.73 | enough cells in well | inactive
Or5p51 | 1 | 0.53 | enough cells in well | inactive
Med12l | 1 | -0.78 | enough cells in well | inactive
Tmem119 | 1 | -0.36 | enough cells in well | inactive
Mrpl22 | 1 | 2.4 | enough cells in well | inactive
Noxa1 | 1 | -1.43 | enough cells in well | active
5730453H04RIK | 1 | -0.96 | enough cells in well | inactive
Zc3hav1 | 1 | -0.67 | enough cells in well | inactive
Magea4 | 1 | 1.29 | enough cells in well | inactive
Zftraf1 | 1 | 0.56 | enough cells in well | inactive
Dmkn | 1 | 0.12 | enough cells in well | inactive
Cep170 | 1 | 0.83 | enough cells in well | inactive
Arl5c | 1 | 1.01 | enough cells in well | inactive
Obox1 | 1 | 1.2 | enough cells in well | inactive
Cox7a1 | 1 | -0.91 | enough cells in well | inactive
Nr1d1 | 1 | -1.25 | enough cells in well | inactive
4930433N12Rik | 1 | – | fewer than 50 cells per well; well left out of calls | inactive
Psd | 1 | 2.94 | enough cells in well | inactive
Hsp90ab1 | 1 | 0.04 | enough cells in well | inactive
Rhot1 | 1 | – | fewer than 50 cells per well; well left out of calls | inactive
Dohh | 1 | 1.66 | enough cells in well | inactive
Or5h18 | 1 | -0.24 | enough cells in well | inactive
Zfp934 | 1 | 1.06 | enough cells in well | inactive
Rpl23a | 1 | – | fewer than 50 cells per well; well left out of calls | inactive
Cdc26 | 1 | 1.06 | enough cells in well | inactive
V1rb5 (retired record) | 1 | 2.51 | enough cells in well | inactive
Ccl22 | 1 | 1.15 | enough cells in well | inactive

Ordered by “Tnf reporter robust z-score” (highest first): some entries from above
Target gene | reagent no. | Tnf reporter robust z-score | fewer than 50 cells in well | activity call
Smim48 | 1 | 0.66 | enough cells in well | inactive
Hmgb1 | 1 | 0.55 | enough cells in well | inactive
Vmn2r129 | 1 | 0.55 | enough cells in well | inactive
Tsx | 1 | -0.09 | enough cells in well | inactive
Fbxo6 | 1 | -0.1 | enough cells in well | inactive
Vmn2r129 | 2 | -0.24 | enough cells in well | inactive
Akr1c6 | 1 | -0.33 | enough cells in well | inactive
Gpat4 | 1 | -0.66 | enough cells in well | inactive
Ofcc1 | 1 | -0.99 | enough cells in well | inactive
